Consider one substance from US4666890A (priority 1978, dated 1987).

A short description of the data set: general procedure: solution-phase peptide synthesis; succinimide active ester (oSu); isobutyl chloroformate / N-methylmorpholine mixe. The following applies: late stage modification step.

Substance “D-Lac-L-Ala-γ-D-Glu(α-OH)-(L)-Z-(D)-mesoDAP-(L)-GlyOH” displayed a step yield of 94.7%.
